Measurements reported in PubChem BioAssay AID493246 (Drosophila RNAi Screening Center, 2011)
Aim: 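Genes fly cells need to grow and stay alive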 (primary screen). System: Drosophila Kc and S2R+ cells. Reagents: long dsRNA against Drosophila genes. Measurement: 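Cell number per well after knock-down, printed as raw plate values; calls were based on per-plate z-scores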. Direction: Kc cell number and S2R+ cell number: higher = more cells remaining. Call rule: 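Active when the per-plate z-score of cell number is 3 or more in the direction of fewer cells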.
The deposit covers about 21,000 reagents; shown is a random part of those with a known target gene and a result. Over the whole deposit, 429 (2%) are marked active. 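Values are raw and not normalised between plates; calls rest on per-plate z-scores that were not deposited.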 No sequences are given here. Not stated in the record: the amount of reagent, the time to read-out.

| predicted target | amplicon | Kc cell number, rep 1 | Kc cell number, rep 2 | S2R+ cell number, rep 1 | S2R+ cell number, rep 2 | outcome |
| --- | --- | --- | --- | --- | --- | --- |
| CG16854 | DRSC02536 | 1.54e6 | 1.61e6 | 1.22e6 | 1.30e6 | inactive |
| Jhbp13 (Juvenile hormone binding protein 13) | DRSC02913 | 1.76e6 | 1.87e6 | 1.37e6 | 1.56e6 | inactive |
| RhoGAP15B (Rho GTPase activating protein at 15B) | DRSC19924 | 1.38e6 | 1.44e6 | 1.06e6 | 1.13e6 | inactive |
| RhoGAP15B (Rho GTPase activating protein at 15B) | DRSC19925 | 1.37e6 | 1.40e6 | 1.09e6 | 1.18e6 | inactive |
| frma (fra mauro) | DRSC18297 | 5.44e5 | – | 8.52e5 | – | inactive |
| LManIII (Lysosomal alpha-mannosidase III) | DRSC03221 | 1.64e6 | 1.58e6 | 1.17e6 | 1.25e6 | inactive |
| Gasp | DRSC12349 | 1.60e6 | 1.59e6 | 1.30e6 | 1.38e6 | inactive |
| isoQC (iso Glutaminyl cyclase) | DRSC11790 | 1.32e6 | 1.45e6 | 1.24e6 | 1.35e6 | inactive |
| fh (frataxin) | DRSC18430 | 1.59e6 | 1.52e6 | 1.03e6 | 1.14e6 | inactive |
| CG13050 | DRSC09931 | 1.49e6 | 1.66e6 | 1.31e6 | 1.42e6 | inactive |
| Neos (Neosin) | DRSC11235 | 1.50e6 | 1.55e6 | 1.20e6 | 9.60e5 | inactive |
| Asph (Aspartyl beta-hydroxylase) | DRSC06783 | 1.72e6 | 1.82e6 | 1.16e6 | 1.23e6 | inactive |
| Asph (Aspartyl beta-hydroxylase) | DRSC07171 | 1.30e6 | 1.37e6 | 1.12e6 | 1.17e6 | inactive |
| Dcp-1 (Death caspase-1) | DRSC04609 | 1.50e6 | 1.53e6 | 1.22e6 | 1.32e6 | inactive |
| CG15597 | DRSC12283 | 1.68e6 | 1.91e6 | 1.27e6 | 1.41e6 | inactive |
| Ir75a (Ionotropic receptor 75a) | DRSC10188 | 1.34e6 | 1.37e6 | 1.24e6 | 1.38e6 | inactive |
| Uch-L5R (Uch-L5-related) | DRSC19825 | 1.49e6 | 1.47e6 | 9.55e5 | 1.00e6 | inactive |
| CG7557 | DRSC10878 | 1.41e6 | 1.49e6 | 1.21e6 | 1.16e6 | inactive |
| CG46298 | DRSC06222 | 1.48e6 | 1.61e6 | 1.10e6 | 1.13e6 | inactive |
| CG3568 | DRSC18312 | 1.54e6 | 1.63e6 | 1.09e6 | 1.22e6 | inactive |
| Hrd3 (HMG-coA reductase degradation 3) | DRSC14156 | 1.42e6 | 1.61e6 | 1.16e6 | 1.23e6 | inactive |
| Pis (Phosphatidylinositol synthase) | DRSC20178 | 1.41e6 | 1.48e6 | 1.03e6 | 1.11e6 | inactive |
| CG33127 | DRSC00011 | 1.68e6 | 1.69e6 | 1.04e6 | 1.22e6 | inactive |
| Taf3 (TBP-associated factor 3) | DRSC17170 | 4.74e5 | – | 7.57e5 | – | inactive |
| CG11470 | DRSC14313 | 1.45e6 | 1.49e6 | 9.62e5 | 1.09e6 | inactive |
| CG10927 | DRSC06014 | 1.44e6 | 1.54e6 | 1.36e6 | 1.28e6 | inactive |
| Klp59C (Kinesin-like protein at 59C) | DRSC04348 | 1.70e6 | 1.73e6 | 1.35e6 | 1.54e6 | inactive |
| CG12081 | DRSC17802 | 5.34e5 | – | 8.75e5 | – | inactive |
| CG14132 | DRSC10136 | 1.30e6 | 1.40e6 | 1.18e6 | 1.30e6 | inactive |
| Traf6 (TNF-receptor-associated factor 6) | DRSC18725 | 1.62e6 | 1.63e6 | 1.07e6 | 1.22e6 | inactive |
| S-Lap3 (Sperm-Leucylaminopeptidase 3) | DRSC10956 | 1.37e6 | 1.43e6 | 1.22e6 | 1.18e6 | inactive |
| CG42240 | DRSC18097 | 6.06e5 | – | 8.63e5 | – | inactive |
| PolrMT (RNA polymerase mitochondrial) | DRSC00660 | 1.23e6 | 1.25e6 | 9.62e5 | 1.02e6 | inactive |
| CG8635 | DRSC07226 | 1.37e6 | 1.41e6 | 1.14e6 | 1.21e6 | inactive |
| CG33704 | DRSC03838 | 5.11e5 | – | 8.68e5 | – | inactive |
| CG34232 | DRSC05332 | 1.43e6 | 1.38e6 | 8.96e5 | 1.04e6 | inactive |
| mRpL12 (mitochondrial ribosomal protein L12) | DRSC10467 | 1.25e6 | 1.35e6 | 1.10e6 | 1.07e6 | inactive |
| CG11786 | DRSC14389 | 1.44e6 | 1.45e6 | 9.71e5 | 1.04e6 | inactive |
| CG4554 | DRSC04473 | 1.26e6 | 1.32e6 | 1.03e6 | 1.13e6 | inactive |
| CG18234 | DRSC10309 | 1.38e6 | 1.50e6 | 1.31e6 | 1.36e6 | inactive |

Look-ups from the list:
CG7557 [DRSC10878], S2R+ cell number, rep 1 → 1.21e6
RhoGAP15B (Rho GTPase activating protein at 15B) [DRSC19924], S2R+ cell number, rep 1 → 1.06e6
